Measured data: PubChem BioAssay AID1259308 (NCATS, 2017)

- Purpose: 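Genes whose loss raises luciferase production in HEK293 cells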 (primary screen)
- Cells: human HEK293 embryonic kidney cells stably expressing firefly luciferase (HEK-CMV-Luc2-Hygro)
- Reagent: single siRNA against human genes, 0.8 pmol siRNA per well
- Time to read-out: 72 h
- Measured: 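Reporter luminescence and viable-cell signal on separate replicate plates, given as percent of non-targeting control and median/MAD z-scores, plus per-cell luciferase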
- Reading the numbers: total luciferase, z-score: higher = more reporter protein produced
- Hit rule: 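An siRNA counts as active if its total luciferase robust z-score exceeds 3; genes with two or more such siRNAs out of three were retested with fresh siRNAs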
- Calls: active = raised luciferase; inactive = no rise
Shown is one part, drawn at random, of about 59,000 reagents tested. About 1,510 of them (2.6%) count as active. 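Calls use total luciferase alone and ignore viability, so some active siRNAs may act by altering cell number.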 The numbers tell different reagents against one gene apart. Not all columns of the deposit are shown.

{"gene": "GATA3-AS1 (GeneID 399717)", "reagent": 1, "total luciferase, z-score": 1.57, "Outcome": "inactive"}
{"gene": "GATA3-AS1 (GeneID 399717)", "reagent": 2, "total luciferase, z-score": 0.854, "Outcome": "inactive"}
{"gene": "GATA3-AS1 (GeneID 399717)", "reagent": 3, "total luciferase, z-score": -0.849, "Outcome": "inactive"}
{"gene": "PER3 (GeneID 8863)", "reagent": 1, "total luciferase, z-score": 1.85, "Outcome": "inactive"}
{"gene": "PER3 (GeneID 8863)", "reagent": 2, "total luciferase, z-score": -0.409, "Outcome": "inactive"}
{"gene": "PER3 (GeneID 8863)", "reagent": 3, "total luciferase, z-score": 0.161, "Outcome": "inactive"}
{"gene": "E2F7 (GeneID 144455)", "reagent": 1, "total luciferase, z-score": 1.24, "Outcome": "inactive"}
{"gene": "E2F7 (GeneID 144455)", "reagent": 2, "total luciferase, z-score": -1.25, "Outcome": "inactive"}
{"gene": "E2F7 (GeneID 144455)", "reagent": 3, "total luciferase, z-score": -1.2, "Outcome": "inactive"}
{"gene": "STEEP1P1 (GeneID 728024)", "reagent": 1, "total luciferase, z-score": 0.951, "Outcome": "inactive"}
{"gene": "STEEP1P1 (GeneID 728024)", "reagent": 2, "total luciferase, z-score": 0.402, "Outcome": "inactive"}
{"gene": "STEEP1P1 (GeneID 728024)", "reagent": 3, "total luciferase, z-score": 0.489, "Outcome": "inactive"}
{"gene": "NDUFA5 (GeneID 4698)", "reagent": 1, "total luciferase, z-score": -0.509, "Outcome": "inactive"}
{"gene": "NDUFA5 (GeneID 4698)", "reagent": 2, "total luciferase, z-score": 0.617, "Outcome": "inactive"}
{"gene": "NDUFA5 (GeneID 4698)", "reagent": 3, "total luciferase, z-score": -1.22, "Outcome": "inactive"}
{"gene": "FAM162A (GeneID 26355)", "reagent": 1, "total luciferase, z-score": -0.244, "Outcome": "inactive"}
{"gene": "FAM162A (GeneID 26355)", "reagent": 2, "total luciferase, z-score": -0.215, "Outcome": "inactive"}
{"gene": "FAM162A (GeneID 26355)", "reagent": 3, "total luciferase, z-score": -0.107, "Outcome": "inactive"}
{"gene": "LINC00917 (GeneID 732275)", "reagent": 1, "total luciferase, z-score": -0.151, "Outcome": "inactive"}
{"gene": "LINC00917 (GeneID 732275)", "reagent": 2, "total luciferase, z-score": -3.3, "Outcome": "inactive"}
{"gene": "LINC00917 (GeneID 732275)", "reagent": 3, "total luciferase, z-score": -0.0217, "Outcome": "inactive"}

Individual results from the entries so far:
Result of NDUFA5 (GeneID 4698) #3 under “Outcome”: inactive
For “total luciferase, z-score”, NDUFA5 (GeneID 4698) #2 is entered as 0.617
